# Library screening results

Data taken from ChEMBL document CHEMBL3988442, “University of Dundee, Small-Polar-MMV Screening Library” (2021).

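Assay on Mycobacterium tuberculosis, filed only as a heat shock assay from Cornell; the read-out is not stated. The concentration is filed as 10 mM, unlikely as a test dose, so the dose is not known. The record gives no direction; compounds that gave an IC50 in retests scored well above the rest, so higher reads as stronger inhibition. Size under these conditions: about 69,000 compounds, about 930 of them at 50% or above in at least one test.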

Values are the deposited “Percent Effect”, in %. How 0% and 100% were set is not recorded. Most values in the screen are low, and negative values occur. This is an unselected part of the compounds tested.

structure | percent effect
NC(=O)C1CCCN1C(=O)c1cccc2c1OCO2 (centres undefined) | 10.11
CCN1CCOCC12CCN(c1ccc(C#N)cc1)CC2.O=C(O)C(F)(F)F | -6.556
COc1cccc(-c2nc(CNCCn3cccn3)cs2)c1 | 90.69
CCCC(C)(C)NC(=O)c1ccc(CC2CC(=O)NC2=O)cc1 (centres undefined) | 5.559
COc1ccnc(NCC2CN(C3CC3)CCO2)n1 (centres undefined) | -14.39
COc1ccccc1C(C)NC(=O)N1CCC(n2cncn2)CC1 (centres undefined) | 6.148
CSc1cccc(CN2CCn3nc(CNC(C)=O)cc3C2)c1 | 4.783
COc1ncc(C(=O)N2CCCC3(C=Cc4ccccc4O3)CC2)cn1 (centres undefined) | 12.22
NC(=O)CC1CCN(c2ncnc3cccc(F)c23)CC1 | -14.32
Cc1nnc(C(C)N2CCCN(Cc3noc(C4CC4)n3)CC2)o1 (centres undefined) | 11.42
COCC1CC2(CCN(C(=O)c3ccc(C)nc3)CC2)CO1.O=C(O)C(F)(F)F (centres undefined) | -13.17
O=C(Cc1ccsc1)N1CCn2cc(Cn3cncn3)nc2C1 | -25.16
C=C(C)CSc1nnc(CCNC(=O)OC(C)(C)C)o1 | 54.16
CCN(CC1CCOC1)C(=O)c1nc(-c2ccco2)sc1C (centres undefined) | 16.69
Cc1noc(C)c1C(=O)N1CCOC2(COCCN(C(C)C)C2)C1.O=C(O)C(F)(F)F (centres undefined) | 7.392
Cl.[H][C@@]12C[C@@H](C(=O)NC(C)C)O[C@]1([H])CCN2 | -1.173
COc1ccc(CNC(=O)CCSCc2csc(C)n2)cn1 | -8.087
Cc1cc(C(F)(F)F)nc(CCNc2nc(C)nc3c2cnn3C)n1 | -3.653
Cc1cc(CN2CCN(S(=O)(=O)c3c(C)c(Cl)cc(C)c3Cl)CC2)on1 | -34.29
Cc1cccc(OCCCNC(=O)NC(C)c2nncn2C)c1 (centres undefined) | 13.54
N#CCCn1cnc2c(Br)cc(Br)cc2c1=O | 5.848
O=C(O)C(F)(F)F.c1ccc(CCNCC2Cn3nncc3CO2)cc1 (centres undefined) | -12.99
O=C(O)C(F)(F)F.O=C(c1ccco1)N1CC2(CCNCC2)c2cc(Cl)ccc21 | -24.85
Cn1ccc(CN2CCC(CC(=O)NC3CCCC3)CC2)cc1=O | -12.2
CCN(CC)Cc1ccccc1NC(=O)N(C)Cc1ccccc1O | -2.765
Cc1ccc(CN(C)C)cc1NC(=O)C1CC1 | 6.427
Cc1noc(CS(=O)(=O)C/C=C/c2ccccc2)n1 | 29.66
[H][C@]12CCN(C(=O)NC(C)C)CC[C@@]1([H])S(=O)(=O)N(Cc1ccccc1)C2 | -4.875
CC(C)N1CCC(CC(=O)NC(C(=O)O)c2cc(F)ccc2F)CC1 (centres undefined) | -18.4
CNc1cc(N2CCCC2CNCc2cccnc2)ncn1 (centres undefined) | -31.11
CCNC(=O)[C@@H]1C[C@@H](N)CN1C(=O)c1cc2ccccc2[nH]1 | 17.42
CC(C)(C)OC(=O)N1CCCN1C(=O)c1cccc(F)c1F | 0.7071
Cc1ccc(OCC(=O)NS(=O)(=O)c2c(C)noc2C)cc1C | -18.37
Cc1noc(C(C)C)c1C(=O)NCc1ccc(N(C)C)c(F)c1 | -14.59
Cn1cc(N2CCC(NC(=O)c3c(F)cccc3Cl)C2=O)cn1 (centres undefined) | 2.037
CN(C)CCN(C)C(=O)NC1CCC(Oc2ccccc2C#N)CC1 (centres undefined) | -10.82
CCOCC(O)CN1CCN(C(=O)c2cnc3n[nH]c(C)c3c2)CC1 (centres undefined) | 16.21
OCC(O)CSCc1cn(-c2ccc(F)c(Cl)c2)nn1 (centres undefined) | -2.886
CN(C)S(=O)(=O)N1CCC(c2nnc(C(F)(F)F)o2)CC1 | 27.03
COc1cc2c(cc1OC)CCN(C(=O)Cn1nc(C)cc1C)CC2 | -2.172
O=C(CC1COCCN1)NCCc1nc(Cc2ccccc2)no1 (centres undefined) | -23.8
Cc1cccc2ncnc(N3CCOC(C)C3)c12 (centres undefined) | 4.017
CC(C)c1nc(C2CCCN(C(=O)CCCn3cccn3)C2)no1 (centres undefined) | 6.998
CC(C)CS(=O)(=O)CCNC(=O)Nc1cccc2ncccc12 | -18.11
Cc1cnc(N2CCn3c(CN4CCOCC4)nnc3C2)nc1.O=C(O)C(F)(F)F | -4.262
O=C(CCC1CCCO1)N1CCc2nc(-c3cnccn3)nc(O)c2C1 (centres undefined) | -2.067
Cc1nnc2n1CCN(C(=O)c1cn(-c3ccccc3)nn1)C2 | -12.98
Cc1cccc(C(C(=O)N2CC(c3ccncc3)C2)N(C)C)c1 (centres undefined) | -9.687
N#Cc1cccc(CN2C(=O)c3ccccc3CS2(=O)=O)c1 | -19.51
CCCn1ccnc1CN1CCCC(O)(CN(C)C)CC1 (centres undefined) | -8.636
CS(=O)(=O)Cc1nc(C2CC2)nn1-c1ccccn1 | -21.21
CN(C)c1cc2c(nn1)CCN(C(=O)Cc1ccc3c(c1)CCO3)C2 | -7.157
COc1ccc(NC(=O)NCCCn2nc3ccccn3c2=O)cc1 | 2.212
Cc1ccccc1-c1csc2c(=O)[nH]c(N3CCCC(C(=O)O)C3)nc12 (centres undefined) | 5.658
Cc1ccc2[nH]c(CN3CC[C@@H](N4CCN(C)CC4)[C@H](O)C3)c(C)c2c1 | -0.6766
CC(NC(=O)NCc1c(F)cccc1Cl)(C(=O)O)c1ccco1 (centres undefined) | 5.277
CC(c1ccco1)N(C)Cc1cc2cc3c(cc2[nH]c1=O)OCO3 (centres undefined) | -3.653
CN1CC(=O)N(c2cccnc2)CC12CCN(C(=O)C1CCCCC1)C2.O=C(O)C(F)(F)F.O=C(O)C(F)(F)F (centres undefined) | -11.42
Cc1c(S(=O)(=O)N(CCc2ccccc2)Cc2ccn(C)n2)cnn1C | -18.97
Cc1cnccc1Cn1ccnc1C1CCOC1 (centres undefined) | -6.125
CCS(=O)(=O)N1CCCC(c2ccnc(N(C)C)c2)C1 (centres undefined) | -16.36
CC(=O)N1CCN(c2cncc(C3CCNCC3)n2)CC1.Cl | -8.785
CNC(=O)c1cn2cc(-c3cccc(Cl)c3)n(CC=C(C)C)c(=O)c2n1 | 8.039
CCN(CC)CC1CN(Cc2c(C)noc2C)Cc2nccn2C1 (centres undefined) | -29.75
Cc1cnn(CC(=O)N2CCC3(CCC(=O)N(C4CCCC4)C3)CC2)c1 | 39.49
Cc1nn(C)cc1CN(C)C(=O)c1ccccn1 | -16.12
O=C(O)C(F)(F)F.[H][C@]12CCN(CCOC)[C@@]1([H])CC[C@H](COCC(=O)N1CCCC1)O2 | -37.31
Cc1ccc(NC(=O)N2CCC3(CCC(C(=O)N(C)C)O3)CC2)cc1 (centres undefined) | -2.556
CCNC(=O)COc1ccc(C(=O)NC(C)CCc2ccco2)cc1 (centres undefined) | -17.84
CC[C@@H]1N(Cc2ccsc2)CCC[C@]12CCC(=O)N2C.O=C(O)C(F)(F)F | -39.58
COc1ccc(CN(Cc2cn(C)nc2C)CC2CCCO2)c(OC)c1 (centres undefined) | -6.357

4 of the entries, repeated:

O=C(O)C(F)(F)F.[H][C@]12CCN(CCOC)[C@@]1([H])CC[C@H](COCC(=O)N1CCCC1)O2 read -37.31%.
Cc1cc(C(F)(F)F)nc(CCNc2nc(C)nc3c2cnn3C)n1 read -3.653%.
CN1CC(=O)N(c2cccnc2)CC12CCN(C(=O)C1CCCCC1)C2.O=C(O)C(F)(F)F.O=C(O)C(F)(F)F (centres undefined) read -11.42%.
CC(C)(C)OC(=O)N1CCCN1C(=O)c1cccc(F)c1F read 0.7071%.